Measured values as given in patent US6441029B1, “Method of suppressing tumor growth with combinations of isoprenoids and statins” (Wisconsin Alumni Research Foundation, priority 1997, dated 2002).

System: established implanted B16 melanoma
Assay: Experiment 2: isoprenoid-enriched diets, survival of mice bearing established melanomas
Assay type: in vivo, C57BL female mice
Conditions: diets started after tumor detection, n = 12
Experimental: Where noted, β-ionone was added to the oil. The diets, mixed weekly, were stored under refrigeration. Food cups were cleaned and refilled daily.
Experiment 2: Weanling female C57BL female mice (n=60, Harlan Sprague-Dawley) were acclimated to the housing conditions and AIN-76A diet (116 μmol dl-α-tocopherol/kg diet) as described above. Tumors were implanted and the mice continued to receive the AIN-76A diet. Beginning on day 8 post-implant the mice were palpated daily for the presence of a tumor. Tumors were first detected on day 14. Random numbers were generated for assigning each mouse in a sequential subset of five to a diet. Experimental treatments provided 2 and 4 mmol d-γ-tocotrienol/kg diet. We additionally tested the impact of β-ionone (2 mmol β-ionone/kg AIN-76A diet) and that of a blend of the two isoprenoids (2 mmol each/kg diet) on the survival of the mice.
We then asked if either dietary d-γ-tocotrienol or β-ionone would prolong the survival of mice bearing implanted melanomas. Dietary treatments were initiated following the detection of solid tumors. We also asked whether these structurally diverse isoprenoids would have an additive effect on survival. The experimental groups were constructed by random assignment of each member of successive subsets of 5 mice to one of the experimental diets. […] Treatments increased median duration of survival by 42±4.5% and the mean duration of survival by 30% (P<0.005); differences between duration of survival means of the experimental groups were not significant (Table 3, FIG. 3). FIG. 3 is a survival curve for host mice receiving isoprenoid-enriched diets following the detection of a solid implanted B16 melanoma. Mean survival durations are presented on Table 4. β-ionone and γ-tocotrienol^1 treatments provided 2 mmol of the isoprenoid/kg diet; the blend provided 2 mmol of each isoprenoid/kg diet; and γ-tocotrienol^2 provided 4 mmol γ-tocotrienol/kg diet.

[1] = group assigned to 2 mmol/kg diet

Compound | Days to tumor [1] [days] | Days to tumor (group assigned to 4 mmol/kg diet) [days]
CC(C)=CCCC(C)=CCCC(C)=CCCC1(C)CCc2cc(O)c(C)c(C)c2O1 (stereo not drawn) [d-γ-Tocotrienol, 2,7,8-trimethyl-2-(4,8,12-trimethyltrideca-3,7,11-trienyl)-chroman-6-ol] | 14.92 | 14.92
CC(=O)C=CC1=C(C)CCCC1(C)C [β-Ionone] | 14.92 | 
